Taken from: PubChem BioAssay AID652272 (Drosophila RNAi Screening Center, 2013)
The deposit covers about 21,000 reagents; shown is an unselected part of those that have a named target and a result. Over the whole deposit, 503 (2.4%) got an active call. 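Raw plate light values, not normalised; calls rest on replicate z-scores that were not deposited; hits include reporter decreases as well as increases.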 Names joined by + are all predicted targets of the reagent. Not given: the amount of reagent, the time to read-out.

Assay: 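Genome-wide knock-down search for components of Hedgehog signalling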 (primary screen)
System: Drosophila clone 8 (Cl8) cells
Reagents: long dsRNA against Drosophila genes
Measurement: 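Plate reader light from a firefly reporter under a ptc promoter fragment that responds to Hedgehog, with Renilla light as transfection reference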
Direction: firefly Hh reporter signal: higher = more ptc reporter light; Renilla reference signal: higher = more Renilla control light
Hit rule: 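Hit when the z-score averaged over two replicates is under -2 or over +3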
Meaning of the calls: active = hit: reporter lowered or raised; inactive = not a hit

With knock-down of cocoon [DRSC10916], the record shows firefly Hh reporter signal, replicate 1 = 1.28e5; Renilla reference signal, replicate 1 = 5617; Renilla reference signal, replicate 2 = 3747; inactive.
With knock-down of Rga + asRNA:ASTR [DRSC12364], the screen gave firefly Hh reporter signal, replicate 1 = 57835; firefly Hh reporter signal, replicate 2 = 85402; Renilla reference signal, replicate 1 = 3184; Renilla reference signal, replicate 2 = 4050; active.
Knock-down of l(2)34Fc [DRSC01910] came out at: firefly Hh reporter signal, replicate 1 = 1.24e5; firefly Hh reporter signal, replicate 2 = 54960; Renilla reference signal, replicate 1 = 3040; Renilla reference signal, replicate 2 = 5479; inactive.
Alp8 [DRSC04353] scored firefly Hh reporter signal, replicate 1 = 1.85e5; firefly Hh reporter signal, replicate 2 = 71433; Renilla reference signal, replicate 1 = 4091; Renilla reference signal, replicate 2 = 5593; inactive.
CG1674 [DRSC17107] showed firefly Hh reporter signal, replicate 1 = 4.49e5; firefly Hh reporter signal, replicate 2 = 2.00e5; Renilla reference signal, replicate 1 = 20674; Renilla reference signal, replicate 2 = 4104; inactive.
Depletion of CG1674 [DRSC17142] resulted in: firefly Hh reporter signal, replicate 1 = 86101; firefly Hh reporter signal, replicate 2 = 1.84e5; Renilla reference signal, replicate 1 = 2151; Renilla reference signal, replicate 2 = 7152; inactive.
Bug22 [DRSC02842] scored firefly Hh reporter signal, replicate 1 = 86272; firefly Hh reporter signal, replicate 2 = 46267; Renilla reference signal, replicate 1 = 2464; Renilla reference signal, replicate 2 = 3968; inactive.
Against CG42819 [DRSC02264], the entry reads firefly Hh reporter signal, replicate 1 = 1.04e5; firefly Hh reporter signal, replicate 2 = 67945; Renilla reference signal, replicate 1 = 2880; Renilla reference signal, replicate 2 = 4731; inactive.
Nepl11 [DRSC12333] gave firefly Hh reporter signal, replicate 1 = 1.21e5; firefly Hh reporter signal, replicate 2 = 5.47e5; firefly Hh reporter signal, replicate 3 = 1.04e5; Renilla reference signal, replicate 1 = 4892; Renilla reference signal, replicate 2 = 30146; inactive.
Against CG15696 [DRSC15118], the values are firefly Hh reporter signal, replicate 1 = 5.01e5; firefly Hh reporter signal, replicate 2 = 97046; Renilla reference signal, replicate 1 = 25178; Renilla reference signal, replicate 2 = 2133; inactive.

Ordered by “Renilla reference signal, replicate 1” (highest first): some entries from above
Alp8 [DRSC04353] | firefly Hh reporter signal, replicate 1: 1.85e5; firefly Hh reporter signal, replicate 2: 71433; Renilla reference signal, replicate 1: 4091; Renilla reference signal, replicate 2: 5593; Outcome: inactive
Rga + asRNA:ASTR [DRSC12364] | firefly Hh reporter signal, replicate 1: 57835; firefly Hh reporter signal, replicate 2: 85402; Renilla reference signal, replicate 1: 3184; Renilla reference signal, replicate 2: 4050; Outcome: active
l(2)34Fc [DRSC01910] | firefly Hh reporter signal, replicate 1: 1.24e5; firefly Hh reporter signal, replicate 2: 54960; Renilla reference signal, replicate 1: 3040; Renilla reference signal, replicate 2: 5479; Outcome: inactive

Continued.
Silencing of RabGGTb [DRSC00804] came out at: firefly Hh reporter signal, replicate 1 = 69459; firefly Hh reporter signal, replicate 2 = 71163; Renilla reference signal, replicate 1 = 3600; Renilla reference signal, replicate 2 = 3025; inactive.
Cyt-c1 [DRSC10447] scored firefly Hh reporter signal, replicate 1 = 1.65e5; firefly Hh reporter signal, replicate 2 = 67604; Renilla reference signal, replicate 1 = 5641; Renilla reference signal, replicate 2 = 2711; inactive.
Dnaaf6 [DRSC10473] scored firefly Hh reporter signal, replicate 1 = 99409; Renilla reference signal, replicate 1 = 3671; Renilla reference signal, replicate 2 = 2672; inactive.
Silencing of CG11414 [DRSC04110] resulted in: firefly Hh reporter signal, replicate 1 = 82900; firefly Hh reporter signal, replicate 2 = 39424; Renilla reference signal, replicate 1 = 3409; Renilla reference signal, replicate 2 = 1834; inactive.
After knock-down of RhoGAP71E [DRSC10232] the results were firefly Hh reporter signal, replicate 1 = 89522; firefly Hh reporter signal, replicate 2 = 56688; Renilla reference signal, replicate 1 = 3686; Renilla reference signal, replicate 2 = 1994; inactive.
RhoGAP71E [DRSC10837] gave firefly Hh reporter signal, replicate 1 = 63264; Renilla reference signal, replicate 1 = 3292; Renilla reference signal, replicate 2 = 2759; active.
For RhoGAP71E [DRSC10838], the entry reads firefly Hh reporter signal, replicate 1 = 1.29e5; Renilla reference signal, replicate 1 = 8553; Renilla reference signal, replicate 2 = 3930; inactive.
After knock-down of Sclp [DRSC19851] the results were firefly Hh reporter signal, replicate 1 = 1.13e5; firefly Hh reporter signal, replicate 2 = 86864; Renilla reference signal, replicate 1 = 1953; Renilla reference signal, replicate 2 = 2267; inactive.
For Cpsf160 [DRSC05968], the entry reads firefly Hh reporter signal, replicate 1 = 64147; firefly Hh reporter signal, replicate 2 = 60392; Renilla reference signal, replicate 1 = 4025; Renilla reference signal, replicate 2 = 2924; inactive.
With knock-down of Mtpbeta [DRSC04663] the results were firefly Hh reporter signal, replicate 1 = 1.29e5; firefly Hh reporter signal, replicate 2 = 87157; Renilla reference signal, replicate 1 = 4884; Renilla reference signal, replicate 2 = 3272; inactive.
Knock-down of Doc3 [DRSC10480] resulted in: firefly Hh reporter signal, replicate 1 = 34059; firefly Hh reporter signal, replicate 2 = 65495; Renilla reference signal, replicate 1 = 3574; Renilla reference signal, replicate 2 = 4816; inactive.
